The results in this text go back to paper PMC6126843, “A dual-specific macrophage colony-stimulating factor antagonist of c-FMS and αvβ3 integrin for osteoporosis therapy” (PLoS Biology, 2018).

By UniProt entry, the sequences of proteins in these tests, tags left out. Where a name states a change or a piece, a line headed by the entry shows the natural chain unless it says otherwise. Residues count along the entry.
UniProt P07333, residues 20-972: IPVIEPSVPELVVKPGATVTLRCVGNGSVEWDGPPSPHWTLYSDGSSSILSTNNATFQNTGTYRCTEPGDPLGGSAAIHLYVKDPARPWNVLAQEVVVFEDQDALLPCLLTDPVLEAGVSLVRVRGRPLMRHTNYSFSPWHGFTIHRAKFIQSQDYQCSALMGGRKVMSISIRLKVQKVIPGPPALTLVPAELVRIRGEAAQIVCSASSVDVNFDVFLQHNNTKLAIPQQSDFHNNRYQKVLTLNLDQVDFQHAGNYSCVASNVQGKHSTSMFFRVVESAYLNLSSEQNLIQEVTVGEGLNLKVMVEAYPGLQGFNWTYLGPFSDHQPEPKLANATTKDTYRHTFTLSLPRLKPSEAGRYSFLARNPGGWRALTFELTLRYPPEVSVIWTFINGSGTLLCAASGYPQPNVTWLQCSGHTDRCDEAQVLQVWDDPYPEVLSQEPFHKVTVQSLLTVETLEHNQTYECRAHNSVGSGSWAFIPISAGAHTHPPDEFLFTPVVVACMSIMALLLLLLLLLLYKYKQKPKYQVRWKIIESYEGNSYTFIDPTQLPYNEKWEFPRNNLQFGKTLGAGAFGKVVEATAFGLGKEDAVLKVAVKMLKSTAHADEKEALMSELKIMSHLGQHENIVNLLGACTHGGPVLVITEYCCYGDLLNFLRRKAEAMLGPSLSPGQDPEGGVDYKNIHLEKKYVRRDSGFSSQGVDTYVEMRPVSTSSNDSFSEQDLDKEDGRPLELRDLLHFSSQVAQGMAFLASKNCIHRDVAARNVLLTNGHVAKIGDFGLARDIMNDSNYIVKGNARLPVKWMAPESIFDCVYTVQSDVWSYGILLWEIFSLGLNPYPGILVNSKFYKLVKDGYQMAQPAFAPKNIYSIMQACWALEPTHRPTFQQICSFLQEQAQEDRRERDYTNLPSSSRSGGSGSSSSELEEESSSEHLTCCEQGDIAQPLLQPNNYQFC
UniProt P09603: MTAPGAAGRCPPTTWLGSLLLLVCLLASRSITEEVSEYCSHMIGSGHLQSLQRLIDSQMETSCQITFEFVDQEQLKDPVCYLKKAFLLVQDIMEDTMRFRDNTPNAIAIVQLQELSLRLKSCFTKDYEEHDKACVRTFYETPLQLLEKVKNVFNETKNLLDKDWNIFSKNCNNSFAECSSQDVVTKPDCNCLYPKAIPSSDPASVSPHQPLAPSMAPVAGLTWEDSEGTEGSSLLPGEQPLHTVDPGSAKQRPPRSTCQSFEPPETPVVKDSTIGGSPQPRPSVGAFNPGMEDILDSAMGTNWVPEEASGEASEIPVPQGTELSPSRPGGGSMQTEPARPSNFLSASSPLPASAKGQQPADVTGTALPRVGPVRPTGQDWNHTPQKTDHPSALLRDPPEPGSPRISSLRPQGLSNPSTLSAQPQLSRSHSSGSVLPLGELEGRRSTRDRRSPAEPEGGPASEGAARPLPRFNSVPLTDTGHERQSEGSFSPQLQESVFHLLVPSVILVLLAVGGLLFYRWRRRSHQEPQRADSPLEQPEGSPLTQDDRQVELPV

These are yes or no findings as the source states them, for the method shown. Binding calls can cover weak binding; strength is not graded here.

The assay addresses c-FMS on MDA-MB-231 cells (human (endogenous in MDA-MB-231)) (UniProt P07333). In words: flow cytometry on cells; competition on MDA-MB-231 cells: 1 μM labelled variant 5.6 with 5 μM M-CSFWT or 10 μM cRGD, separately or together, integrin binding buffer + 1% BSA, 4 °C, 2 h; only the binder purified. (In general: A flow cytometer gives signals particle by particle.)

“wild-type M-CSF (M-CSFWT) (from UniProt P09603) (ligand)”: the binding result is “binds”.
